Measured values from patent US20100144853A1, “NOVEL COMBINED ADMINISTRATION” (priority 2008, published 2010).
At least one compound was matched to its structure with a doubt left.

Key:
Assay type in all cases: in vitro ADME
Lipase from Hog Pancreas = test: Stability of COMPOUND A with Lipase, with and without COMPOUND B (Example 1); settings: summary of Examples 1 and 2 (Lipase experiments)
Procedure: (a) FeSSIF (Fed State Simulated Intestinal Fluid) and phosphate buffered saline solution:
(b) Stock A=drug solution (0.5 mg/mL):
5 mg of thioisobutyric acid S-(2-{[1-(2-ethyl-butyl)-cyclohexanecarbonyl]-amino}-phenyl)ester (COMPOUND A) were dissolved in 50 μL ethanol and 950 μL mixed micelles Soybean lecithin/Sodium glycocholate (158/97 mg/mL) in water were added. One part of the mixture was diluted with 9 parts of phosphate buffered saline solution at pH 6.5.
(c) Stock B=esterase inhibitor solution (1.0 mg/mL)
5 mg 1-(3-hexyl-4-oxo-oxetan-2-yl)tridecan-2-yl 2-formyl-amino-4-methyl-pentanoate (COMPOUND B) were dissolved in 250 μL ethanol. 4.75 mL mixed micelles soybean lecithin/sodium glycocholate (30/80.6 mg/mL) were added to give a solution of 1 mg/mL COMPOUND B.
(d) Stock C=Lipase in phosphate buffered saline solution (PBS) pH 6.5 (example given at 24 mg/mL, with a final enzyme activity of about 450 U/mL)
240 mg Lipase (Lipase from Hog Pancreas, 20.6 U/mg Lipase, CAS No. 9001-62-1, Fluka, Art. No. 62300) were weighed into a vial and dissolved by stirring in 10 mL phosphate buffered saline solution pH 6.5. […]
[…] The combined solution/suspension was centrifuged during 5 min at 3000 rpm and the concentration of COMPOUND A as well as its potential degradation products were determined in the supernatant by HPLC analysis. […]

[1] = Stability of COMPOUND A in human intestinal fluids, Procedure D (in solution), fasted; settings: summary of Example 3, fasted and stimulated fluids
Procedure: Procedure D (COMPOUND A and COMPOUND B in Solution):
(§1) Fasted Intestinal Fluids: the fluids from 4 different subjects were collected with a naso-jejunal tube after fasting overnight and pooled.
5 mg of thioisobutyric acid S-(2-{[1-(2-ethyl-butyl)-cyclohexanecarbonyl]-amino}-phenyl)ester (COMPOUND A) were dissolved in 50 μL ethanol and 950 μL mixed micelles solution containing Soybean lecithin/Sodium glycocholate (158/97 mg/mL) in water were added.
3 mg of 1-(3-hexyl-4-oxo-oxetan-2-yl)tridecan-2-yl 2-formyl-amino-4-methyl-pentanoate (COMPOUND B) were dissolved in 1 mL of ethanol. 100 μL of this solution was diluted with 900 μL of FeSSIF concentrate (10×).
100 μL of drug solution (stock D) were mixed with 100 μL of esterase inhibitor solution (stock E) and 800 μL of pro-FaSSIF were added.
100 μL of premix (stock F) were mixed with 200 μL of drug solution (stock A).
200 μL of premix (stock F) were mixed with 100 μL of drug solution (stock A). 315 μL of intestinal fluids (fasted and stimulated) were pre-heated at 37° C. for about 5 min. At time zero, 35 μL of premix solutions were added, i.e. either stock A, stock G, stock H or stock F, to obtain 50 μg/mL of COMPOUND A and final concentrations of COMPOUND B of 0, 1, 2 or 3 μg/mL. The samples were incubated at 37° C. while gently stirring. […] The supernatant was analyzed by HPLC.

[2] = Stability of COMPOUND A in human intestinal fluids, Procedure E (suspension, excess separated by centrifugation), fasted; settings: summary of Example 4, fasted and stimulated fluids
Procedure: as §1
Procedure E (COMPOUND A and COMPOUND B in Suspension, Excess Compound Separated by Centrifugation):
Stock J=COMPOUND B suspension (2 mg/mL)
100 μL of FeSSIF concentrate and 900 μL of pro-FeSSIF pH6.5 were added to 4 mg commercially available Orlistat formulation (Xenical®) containing 2 mg of lipase inhibitor 1-(3-hexyl-4-oxo-oxetan-2-yl)tridecan-2-yl 2-formyl-amino-4-methyl-pentanoate (COMPOUND B) in a vial and the formulation was dispersed by gently stirring during 15 min to obtain a fine homogenous suspension.
500 μL of freshly thawed intestinal fluids (fasted and stimulated state) were added to 1 mg of COMPOUND A in a 1 mL glass vial immediately followed by the addition of either 0, 10 or 20 μL of COMPOUND B suspension (stock J) corresponding to 0, 40 or 80 μg/mL of COMPOUND B. The amount of COMPOUND B was 0, 2% or 4% COMPOUND B relative to COMPOUND A. The mixture was incubated at 37° C. with gentle stirring. Samples of 90 μL were removed as function of time and centrifuged at 13′000 rpm (about 12′000×g) for 5 min. 50 μL of the supernatant was diluted with 150 μL isopropanol, centrifuged at 5′000 rpm for 5 min and the clear supernatant was analyzed by HPLC.

CCCCCCCCCCC[C@@H](C[C@@H]1OC(=O)[C@H]1CCCCCC)OC(=O)[C@H](CC(C)C)NC=O [COMPOUND B, 1-(3-hexyl-4-oxo-oxetan-2-yl)tridecan-2-yl 2-formyl-amino-4-methyl-pentanoate, reference compound]
Effect of COMPOUND B on lipase induced hydrolytic degradation of COMPOUND A (Lipase from Hog Pancreas): efficiently prevents lipase induced hydrolytic degradation of COMPOUND A | Effect of COMPOUND B on hydrolysis of dissolved COMPOUND A in intestinal fluids [1]: stabilizes dissolved COMPOUND A towards hydrolysis in intestinal fluids and reduces the formation of the disulfide | Effect of COMPOUND B suspension on hydrolysis of excess thioester in intestinal fluids [2]: stabilizes the thioester which is present in excess in intestinal fluids against hydrolysis and subsequent oxidation of the thiol formed
